The text below walks through data of PMC9561260.

Results are given in words; binding and its absence hold for the method and conditions named. In cells and extracts the contact can be indirect. A yes stands for co-enrichment or nearness to the bait. Other partners may have been found. Sequences can lack the tags named with a protein.

The assay concerns the target T1, 2× HA-3× FLAG-Eya1 (UniProt P97767).
T1 sequence: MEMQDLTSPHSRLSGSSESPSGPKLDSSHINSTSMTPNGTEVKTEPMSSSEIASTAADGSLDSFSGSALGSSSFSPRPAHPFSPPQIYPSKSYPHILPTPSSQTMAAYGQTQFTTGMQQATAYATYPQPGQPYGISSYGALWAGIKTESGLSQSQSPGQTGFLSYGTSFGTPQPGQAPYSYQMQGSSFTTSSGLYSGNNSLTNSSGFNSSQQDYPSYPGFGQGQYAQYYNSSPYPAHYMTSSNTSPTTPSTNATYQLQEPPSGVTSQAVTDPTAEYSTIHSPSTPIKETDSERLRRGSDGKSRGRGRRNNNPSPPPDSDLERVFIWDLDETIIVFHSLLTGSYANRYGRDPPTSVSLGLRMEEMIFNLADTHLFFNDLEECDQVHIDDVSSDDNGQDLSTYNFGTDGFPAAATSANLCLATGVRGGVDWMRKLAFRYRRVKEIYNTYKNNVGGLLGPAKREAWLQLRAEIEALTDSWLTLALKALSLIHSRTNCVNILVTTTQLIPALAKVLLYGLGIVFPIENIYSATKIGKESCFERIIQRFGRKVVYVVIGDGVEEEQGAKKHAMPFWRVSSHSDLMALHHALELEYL
Nature of the assay: affinity purification with mass spectrometry; tandem purification of HF-Eya1 from lysate of stable HEK293 cells: anti-FLAG M2 beads, FLAG peptide elution, then anti-HA agarose; 50 mM Tris-HCl pH 7.5, 150 mM NaCl, 0.1% Nonidet P-40, 4°C; 12 bands (B1-B12) cut from a silver-stained gel.

B1: ZBTB10 (protein, UniProt Q96DT7 1-871)
chain: MSFSEMNRRTLAFRGGGLVTASGGGSTNNNAGGEASAWPPQPQPRQPPPPAPPALQPPNGRGADEEVELEGLEPQDLEASAGPAAGAAEEAKELLLPQDAGGPTSLGGGAGGPLLAERNRRTLAFRGGGGGGLGNNGSSRGRPETSVWPLRHFNGRGPATVDLELDALEGKELMQDGASLSDSTEDEEEGASLGDGSGAEGGSCSSSRRSGGDGGDEVEGSGVGAGEGETVQHFPLARPKSLMQKLQCSFQTSWLKDFPWLRYSKDTGLMSCGWCQKTPADGGSVDLPPVGHDELSRGTRNYKKTLLLRHHVSTEHKLHEANAQESEIPSEEGYCDFNSRPNENSYCYQLLRQLNEQRKKGILCDVSIVVSGKIFKAHKNILVAGSRFFKTLYCFSNKESPNQNNTTHLDIAAVQGFSVILDFLYSGNLVLTSQNAIEVMTVASYLQMSEVVQTCRNFIKDALNISIKSEAPESVVVDYNNRKPVNRDGLSSSRDQKIASFWATRNLTNLASNVKIENDGCNVDEGQIENYQMNDSSWVQDGSPEMAENESEGQTKVFIWNNMGSQGIQETGKTRRKNQTTKRFIYNIPPNNETNLEDCSVMQPPVAYPEENTLLIKEEPDLDGALLSGPDGDRNVNANLLAEAGTSQDGGDAGTSHDFKYGLMPGPSNDFKYGLIPGTSNDFKYGLIPGASNDFKYGLLPESWPKQETWENGESSLIMNKLKCPHCSYVAKYRRTLKRHLLIHTGVRSFSCDICGKLFTRREHVKRHSLVHKKDKKYKCMVCKKIFMLAASVGIRHGSRRYGVCVDCADKSQPGGQEGVDQGQDTEFPRDEEYEENEVGEADEELVDDGEDQNDPSRWDESGEVCMSLDD
Regarding B1, the binding entry is on record as “binds”.
